# Experimental data as given in the RNAGym collection of RNA variant scans (doi:10.1126/science.aae0568).
# This sample is rich in variants without activity.
# B1: tRNA (parent)
# chain: GUUCCGUUGGCGUAAUGGUAACGCGUCUCCCUCCUAAGGAGAAGACUGCGGGUUCGAGUCCCGUACGGAACG
# Variants of: B1
# Assay: yeast fitness relative to wild type (ratio to wild type); higher = fitter; tRNA-Arg(CCU), competitive growth, 37 C, YPD
# In short: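 Amplicons of the tRNA-Arg(CCU) gene were sequenced, 100-nucleotide paired-end, from the start population and from each end population of a pooled yeast competition. The competition, in six parallel replicates, lasted 24 hours in YPD at 37°C. Fitness relative to wild type was calculated from changes in genotype frequencies. Genotypes had to have ≥ 100 starting reads, and estimates < 0.5 were set to 0.5.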
row,Variant,yeast fitness
1,C34U A45U,0.686
2,U8G G17A A20C C22G C29G C34G G68A,0.606
3,C24A G52C C55A,≤ 0.5
4,A45G G58C C62A C66G,≤ 0.5
5,G10C G25C G44C G58A,≤ 0.5
6,C29G C31G C34A A37C C66A,≤ 0.5
7,C5A A45C C60A G68A,≤ 0.5
8,A14C G25C U64A,≤ 0.5
9,G9A C29G C66U A70C,≤ 0.5
10,C31G U35A G48A,≤ 0.5
11,G6C A37G G51A C61G,≤ 0.5
12,C33U G39C,0.622
13,G6C A21G U32C U59G C66U A70C,≤ 0.5
14,A15G G17A C33U G39C C55A C66U G67C,≤ 0.5
15,U19A C22U G67U,≤ 0.5
16,U13C C30U G41A A45G,≤ 0.5
17,C5G C27G C46U C60A C66G G68C,≤ 0.5
18,G9A A14G G23A G41C C61U A69C,≤ 0.5
19,G10A C29G C33U G63A U64C,≤ 0.5
20,U3A U35A C49U,≤ 0.5
21,G25U G44C G51A G67C G68A,≤ 0.5
22,G18A G23C C30G A36U A65U A69C,≤ 0.5
23,A36U G48C C49G,≤ 0.5
24,G12C A43U C61G C66A A70U,≤ 0.5

row,Variant,yeast fitness
1,C11G C22G A37U,≤ 0.5
2,A15G C30A C31G A40G G50A G56C,≤ 0.5
3,U3C C4U A15G U26A U32A,0.571
4,U35A C49G C60A,≤ 0.5
5,C5G U19A C31G C49G,≤ 0.5
6,A45G A57U,0.751
7,U8G U16A A36C C66U,≤ 0.5
8,C4G G48A U59C,≤ 0.5
9,G9A U13A C33U G50A,≤ 0.5
10,A15G A21G C29A,≤ 0.5
11,U16C C46G U54A A57C U64G,≤ 0.5
12,U3A C4G U8A C24G C61A,≤ 0.5
13,C5G G10C C61A,≤ 0.5
14,C5U A20C G23A A36G G52C,≤ 0.5
15,G6C C24U C49U G56C A65U G67A,≤ 0.5
16,U13G C24U U28A A42G A69C,≤ 0.5
17,C11U C24G A57G,≤ 0.5
18,C29U A43G C49A C66U,≤ 0.5
19,C31G A65C G67C,≤ 0.5
20,U8A G38A G58C C66U,≤ 0.5
21,C34A G44A C46U A65C,≤ 0.5
22,C5U C11A A14G A42G C55U,≤ 0.5
23,C4G G10A U13C U32A A70C,≤ 0.5
24,A37G C46U U59G C66U,≤ 0.5

row,Variant,yeast fitness
1,A20C A37C A43G C55U,≤ 0.5
2,C29G G50A C55G C60G,≤ 0.5
3,C31G C66G,0.587
4,A21G A43C,0.966
5,G23A C55U A69U,≤ 0.5
6,A36G C46G U54G,≤ 0.5
7,A15U C24A G25A G50U U54C G68C,≤ 0.5
8,G12A C27G A36G,≤ 0.5
9,U32C A40U C55A G56C,≤ 0.5
10,C4G C29A C34U A36U G67A,≤ 0.5
11,A40G U47C U53C C55A A57G,≤ 0.5
12,G17C C34G A42C C46U C61G,≤ 0.5
13,C11G A42U C49U C62U,≤ 0.5
14,C34A C49A C60G C62A A65G,≤ 0.5
15,C4G C5G C31A U35C,≤ 0.5
16,G9A C11U G48A,0.715
17,G12A C27G C61U A65C G67A G68A,≤ 0.5
18,C22G C24U A37C G51C C55U,≤ 0.5
19,A14C C27U A43U U54C U59G,≤ 0.5
20,C11U A37G G56C,≤ 0.5
21,C5A U16A A45G G50A C61U,≤ 0.5
22,A14C G18A G48A C60G,0.558
23,C11G A20G U32A C62U,≤ 0.5
24,G12A A14C C30A G52C,≤ 0.5

row,Variant,yeast fitness
1,A14G C24G C31U C55A G63C G67C,≤ 0.5
2,A14G G38C G50C,≤ 0.5
3,G9C G23A A45G C62U C66U,≤ 0.5
4,G9A G17A A21G C34U G44C A70U,≤ 0.5
5,G12C A14U C61G U64C A69U,≤ 0.5
6,A14G C22G C30G U47A,≤ 0.5
7,G6A G18C C30G C34A A37C A65C,≤ 0.5
8,U3C U16G C30U C33U U47C G56A,≤ 0.5
9,G6A A20C A21U C46G,≤ 0.5
10,A20C G50A A57U A70U,≤ 0.5
11,C4G G6A G23A A43G A69C,≤ 0.5
12,C4G U7C C27U,≤ 0.5
13,C31A C33U G41A C55A,≤ 0.5
14,A20U A21C C27A,≤ 0.5
15,C5U C27G U47C A70U,≤ 0.5
16,U7A U13C A20C,≤ 0.5
17,C22G C27G A36U A40C C66U,≤ 0.5
18,A21U A37C G50C,≤ 0.5
19,G38C G41C C61U,≤ 0.5
20,U8C G23C C33G C49U,≤ 0.5
21,A36G A42U A57U U64C,≤ 0.5
22,G6A A15C A20U,0.56
23,U35G U47A G48A A65U,≤ 0.5
24,U16A A21U C24A G52A,≤ 0.5

row,Variant,yeast fitness
1,C33G A40U C46G C49G C55U,≤ 0.5
2,A36U G63A,0.672
3,U2C U13C G23C C55G,≤ 0.5
4,A15G G39C A40G C66G A69C,≤ 0.5
5,C24U C31U C61A,≤ 0.5
6,A14C A45C U47C G50A,≤ 0.5
7,A21G G44A A69C,≤ 0.5
8,G6C U7G G17C C60G A70U,≤ 0.5
9,A43G A57G G67A A70U,≤ 0.5
10,C4G U8G G12A G48A A69C,≤ 0.5
11,C5G A14G G18C C24U G67U,≤ 0.5
12,A21C C46U A65U,0.556
13,C4G A21C C27A U28G G58A G67C,≤ 0.5
14,A20G C24G C29U G51C,≤ 0.5
15,A15G A21C G25C U26G U59A A70C,≤ 0.5
16,U26A C30U C62U C66A,≤ 0.5
17,C34G U54A U59C A65G A70G,0.84
18,C4U C5G A37U G44A A70G,≤ 0.5
19,C24G A36G U64C,≤ 0.5
20,G10A C30U G50A C66U,≤ 0.5
21,G17A C33G C66U,≤ 0.5
22,G9A C31U C46G C49U C66G,≤ 0.5
23,U2C C5A C29G G48A A69U,≤ 0.5
24,U26A A36U,0.606

row,Variant,yeast fitness
1,C5U G63A C66G,≤ 0.5
2,G10C C24U C34G A65C,≤ 0.5
3,U8G A43C C66G A69U,≤ 0.5
4,A20C G52C U54A C61U,≤ 0.5
5,C4A G18A G25C,0.515
6,U3A G50C G56A,≤ 0.5
7,A14U A43U A45G U47A,≤ 0.5
8,G6A U8G G68C,≤ 0.5
9,U8C A15U A57U A69U,≤ 0.5
10,G10C C49U A65G,≤ 0.5
11,A21U U32A A70G,≤ 0.5
12,G18A U19A G23C U35C,≤ 0.5
13,C4G C5U C31G G41A A43C C61U G68A,≤ 0.5
14,C34U A65U,0.574
15,U2C C4U G10C U64C,≤ 0.5
16,C29U A37C A40G,≤ 0.5
17,A37C A43U G52A C62A C66A,≤ 0.5
18,G6A U8C A14U,0.564
19,U7G A42C G48A G50C A69C,≤ 0.5
20,C4U C27U C49U G52A C60A,≤ 0.5
21,A42G G51A C60A,≤ 0.5
22,U8C G25U C29A G51C,≤ 0.5
23,U16A A21C A45U C60U G67C,≤ 0.5
24,G50A G51A G52A,≤ 0.5

row,Variant,yeast fitness
1,G12A G18A U19C C55U A57C G58C G63A,≤ 0.5
2,C34G A37C A42G G44C G58A C60A,≤ 0.5
3,G23A U47A U64A,≤ 0.5
4,U16A C62U,0.918
5,C11G C22G C33G U47C,≤ 0.5
6,U2C C5A A57G C66G,≤ 0.5
7,U3G C5G U19C C55G,≤ 0.5
8,G9C G10C U35A G38A C61G,≤ 0.5
9,C29G U35C C49G C55A,≤ 0.5
10,U2A C5A C30A A42C A43G G56A A57U,≤ 0.5
11,G10A G17A A36G A40C C62U,≤ 0.5
12,C5U A45U G67U A69G,≤ 0.5
13,G9C A15G G48A C55U,≤ 0.5
14,C5G C49G G51A,≤ 0.5
15,G10A U16C C31U A57C,≤ 0.5
16,C24A C61U,0.718
17,C29A A36G G48A C66U,≤ 0.5
18,A14G C31U C34U G38A C46U,≤ 0.5
19,C11U C27U A45C G56C,≤ 0.5
20,U26G C27U G56A A65C,≤ 0.5
21,C34G C55U G63A,≤ 0.5
22,C4A G10C C49G,≤ 0.5
23,C24U G39C G68C A70G,≤ 0.5
